Test results as given in US20110097749A1.
No constants are given. Whether binding was seen depends on the method and setting. Binding seen in cells or lysates may run through a third protein. Some binding calls cover weakened binding; strength is not graded here. Tags and fused reporters may be left off the sequences shown.

Experiments:
[1] = target: T1, ferroportin (FPN1) on murine macrophage cells (RAW 264.7, J774) (murine) (UniProt Q9JHI9); test: DSS cross-linking on RAW 264.7 cells, Ni-NTA pull-down, Western blot with anti-ferroportin antibody
T1 sequence (looked up): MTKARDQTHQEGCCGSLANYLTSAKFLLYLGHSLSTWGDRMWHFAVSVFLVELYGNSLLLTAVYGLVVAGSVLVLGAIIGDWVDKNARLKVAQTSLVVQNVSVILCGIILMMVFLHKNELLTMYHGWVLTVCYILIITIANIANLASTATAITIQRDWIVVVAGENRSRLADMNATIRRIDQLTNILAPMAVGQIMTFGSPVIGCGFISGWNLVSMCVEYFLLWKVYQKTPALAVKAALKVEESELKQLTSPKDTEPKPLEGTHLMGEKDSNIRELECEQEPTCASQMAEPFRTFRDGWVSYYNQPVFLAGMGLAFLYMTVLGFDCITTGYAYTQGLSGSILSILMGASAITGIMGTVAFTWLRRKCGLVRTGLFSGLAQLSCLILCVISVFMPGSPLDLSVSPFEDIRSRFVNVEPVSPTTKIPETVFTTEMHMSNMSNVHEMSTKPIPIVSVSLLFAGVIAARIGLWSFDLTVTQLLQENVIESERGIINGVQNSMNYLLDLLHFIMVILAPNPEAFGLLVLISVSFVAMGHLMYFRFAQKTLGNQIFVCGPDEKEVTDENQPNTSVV

[2] = target: T1, ferroportin (FPN1) on murine macrophage cells (RAW 264.7, J774) (murine); test: DSS cross-linking on RAW 264.7 cells, Ni-NTA pull-down, Western blot with anti-FPN1 Ab (FIG. 7C)

binding [1]: binds | binding [2]: binds
B1: hepcidin-25His (Hep-25His) (peptide)
peptide: GADTHFPICIFCCGCCHRSKCGMCCKTFDHHHHHH
